Laboratory results: doi:10.1101/2023.07.25.550466

Protein sequences, listed by entry. Tags and fused reporters are not part of them.
UniProt Q91ZW3: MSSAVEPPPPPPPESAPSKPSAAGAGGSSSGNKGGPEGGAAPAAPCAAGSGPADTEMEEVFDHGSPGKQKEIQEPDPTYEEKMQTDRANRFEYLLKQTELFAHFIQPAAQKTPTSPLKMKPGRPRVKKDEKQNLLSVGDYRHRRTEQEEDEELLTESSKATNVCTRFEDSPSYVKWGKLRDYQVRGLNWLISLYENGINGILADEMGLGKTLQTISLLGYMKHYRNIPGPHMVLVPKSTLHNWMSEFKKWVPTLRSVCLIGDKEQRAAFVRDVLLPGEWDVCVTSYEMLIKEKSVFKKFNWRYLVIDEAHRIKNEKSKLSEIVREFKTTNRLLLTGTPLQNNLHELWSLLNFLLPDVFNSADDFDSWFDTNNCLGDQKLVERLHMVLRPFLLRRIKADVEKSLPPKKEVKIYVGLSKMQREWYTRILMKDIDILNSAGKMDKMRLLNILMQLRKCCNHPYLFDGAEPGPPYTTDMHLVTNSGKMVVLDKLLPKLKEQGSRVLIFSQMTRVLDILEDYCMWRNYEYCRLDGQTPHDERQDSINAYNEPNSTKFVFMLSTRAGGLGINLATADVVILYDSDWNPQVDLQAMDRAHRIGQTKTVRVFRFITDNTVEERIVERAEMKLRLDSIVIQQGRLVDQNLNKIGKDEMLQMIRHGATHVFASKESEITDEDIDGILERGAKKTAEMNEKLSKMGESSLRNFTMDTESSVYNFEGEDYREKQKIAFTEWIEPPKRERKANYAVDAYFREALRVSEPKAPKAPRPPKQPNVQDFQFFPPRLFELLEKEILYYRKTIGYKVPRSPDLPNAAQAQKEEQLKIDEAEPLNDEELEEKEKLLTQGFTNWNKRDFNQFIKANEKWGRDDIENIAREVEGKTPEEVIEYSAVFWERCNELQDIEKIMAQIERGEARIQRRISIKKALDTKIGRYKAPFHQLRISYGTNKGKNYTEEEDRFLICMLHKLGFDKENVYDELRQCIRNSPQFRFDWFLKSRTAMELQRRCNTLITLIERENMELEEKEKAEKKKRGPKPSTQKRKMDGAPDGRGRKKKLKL
UniProt E9Q2Z1: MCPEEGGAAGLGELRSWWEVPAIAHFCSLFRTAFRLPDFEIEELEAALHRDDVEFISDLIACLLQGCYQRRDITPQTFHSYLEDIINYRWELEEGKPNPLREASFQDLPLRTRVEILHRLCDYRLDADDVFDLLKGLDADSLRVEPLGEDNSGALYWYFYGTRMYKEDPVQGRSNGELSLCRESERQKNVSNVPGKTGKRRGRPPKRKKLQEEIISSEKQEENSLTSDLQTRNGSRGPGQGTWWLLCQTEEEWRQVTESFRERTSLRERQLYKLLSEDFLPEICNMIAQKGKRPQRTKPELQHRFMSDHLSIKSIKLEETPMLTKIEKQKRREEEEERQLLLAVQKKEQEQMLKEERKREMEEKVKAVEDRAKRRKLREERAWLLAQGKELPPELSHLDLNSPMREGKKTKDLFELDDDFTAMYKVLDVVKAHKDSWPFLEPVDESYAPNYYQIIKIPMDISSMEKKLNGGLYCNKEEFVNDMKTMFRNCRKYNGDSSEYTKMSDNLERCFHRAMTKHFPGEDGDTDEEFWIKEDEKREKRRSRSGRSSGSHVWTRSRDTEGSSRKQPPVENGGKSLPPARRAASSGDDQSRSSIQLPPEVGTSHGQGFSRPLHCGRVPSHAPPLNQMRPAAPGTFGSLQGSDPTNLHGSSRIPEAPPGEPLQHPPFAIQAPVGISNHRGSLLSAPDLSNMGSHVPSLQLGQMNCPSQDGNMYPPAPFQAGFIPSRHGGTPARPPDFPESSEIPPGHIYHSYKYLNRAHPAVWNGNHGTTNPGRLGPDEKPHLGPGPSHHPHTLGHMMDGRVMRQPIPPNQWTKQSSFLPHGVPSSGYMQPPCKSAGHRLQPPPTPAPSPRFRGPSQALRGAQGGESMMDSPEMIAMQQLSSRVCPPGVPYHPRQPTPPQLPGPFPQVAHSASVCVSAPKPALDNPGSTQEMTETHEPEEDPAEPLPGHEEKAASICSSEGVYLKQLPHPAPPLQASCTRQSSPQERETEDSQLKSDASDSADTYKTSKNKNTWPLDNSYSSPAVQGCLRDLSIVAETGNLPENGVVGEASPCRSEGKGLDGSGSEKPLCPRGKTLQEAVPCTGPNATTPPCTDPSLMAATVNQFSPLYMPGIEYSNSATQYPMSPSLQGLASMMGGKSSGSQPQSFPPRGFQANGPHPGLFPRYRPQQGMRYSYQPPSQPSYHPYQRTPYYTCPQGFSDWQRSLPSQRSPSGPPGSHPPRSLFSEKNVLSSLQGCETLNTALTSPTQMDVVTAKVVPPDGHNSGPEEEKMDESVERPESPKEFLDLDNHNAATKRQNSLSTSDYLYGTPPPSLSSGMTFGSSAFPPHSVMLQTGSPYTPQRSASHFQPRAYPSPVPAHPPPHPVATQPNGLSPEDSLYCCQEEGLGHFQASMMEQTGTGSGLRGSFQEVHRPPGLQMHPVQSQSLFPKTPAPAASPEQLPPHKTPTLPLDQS

Biological target: SNF2H (Smarca5) (mouse (endogenous in mESCs)) (UniProt Q91ZW3)
Assay: affinity purification with mass spectrometry

binding: binds
Substance: CECR2 (from UniProt E9Q2Z1 1-1453)

Results are given in words; binding and its absence hold for the method and conditions named. Binding seen in cells or lysates may run through a third protein. Here binding means that the protein was enriched with, or labelled near, the bait; the list need not be complete.
